In article PMC4022726:
These are yes or no findings as the source states them, for the method shown. Some entries that bind do so weakly or less than the wild type. Tags and fused reporters may be left off the sequences shown.

Experiments:
[1] = biological target: NiV-G cytosolic tail (residues 1-45) (Nipah virus) (UniProt Q9IH62); experiment: two-hybrid
[2] = biological target: NiV-F cytosolic tail (residues 519-546) (Nipah virus) (UniProt Q9IH63); experiment: two-hybrid

Binder | binding [1] | binding [2]
μ4 subunit of AP-4 (Gal4 activation domain fusion) (protein, UniProt O00189 1-453) MISQFFILSSKGDPLIYKDFRGDSGGRDVAELFYRKLTGLPGDESPVVMHHHGRHFIHIRHSGLYLVVTTSENVSPFSLLELLSRLATLLGDYCGSLGEGTISRNVALVYELLDEVLDYGYVQTTSTEMLRNFIQTEAVVSKPFSLFDLSSVGLFGAETQQSKVAPSSAASRPVLSSRSDQSQKNEVFLDVVERLSVLIASNGSLLKVDVQGEIRLKSFLPSGSEMRIGLTEEFCVGKSELRGYGPGIRVDEVSFHSSVNLDEFESHRILRLQPPQGELTVMRYQLSDDLPSPLPFRLFPSVQWDRGSGRLQVYLKLRCDLLSKSQALNVRLHLPLPRGVVSLSQELSSPEQKAELAEGALRWDLPRVQGGSQLSGLFQMDVPGPPGPPSHGLSTSASPLGLGPASLSFELPRHTCSGLQVRFLRLAFRPCGNANPHKWVRHLSHSDAYVIRI | no binding | binds
μ1B subunit of AP-1 (Gal4 activation domain fusion) (protein, UniProt Q9Y6Q5 1-423) MSASAVFILDVKGKPLISRNYKGDVAMSKIEHFMPLLVQREEEGALAPLLSHGQVHFLWIKHSNLYLVATTSKNANASLVYSFLYKTIEVFCEYFKELEEESIRDNFVIVYELLDELMDFGFPQTTDSKILQEYITQQSNKLETGKSRVPPTVTNAVSWRSEGIKYKKNEVFIDVIESVNLLVNANGSVLLSEIVGTIKLKVFLSGMPELRLGLNDRVLFELTGRSKNKSVELEDVKFHQCVRLSRFDNDRTISFIPPDGDFELMSYRLSTQVKPLIWIESVIEKFSHSRVEIMVKAKGQFKKQSVANGVEISVPVPSDADSPRFKTSVGSAKYVPERNVVIWSIKSFPGGKEYLMRAHFGLPSVEKEEVEGRPPIGVKFEIPYFTVSGIQVRYMKIIEKSGYQALPWVRYITQSGDYQLRTS | no binding | binds
μ3A subunit of AP-3 (Gal4 activation domain fusion) (protein, UniProt P53676 1-418) MIHSLFLINCSGDIFLEKHWKSVVSQSVCDYFFEAQEKAADVENVPTVISTPHHYLISIYRDKLFFVSVIQTEVPPLFVIEFLHRVADTFQDYFGECSEAAIKDNVVIVYELLEEMLDNGFPLATESNILKELIKPPTILRSVVNSITGSSNVGDTLPTGQLSNIPWRRAGVKYTNNEAYFDVVEEIDAIIDKSGSTVFAEIQGVIDACIKLSGMPDLSLSFMNPRLLDDVSFHPCIRFKRWESERVLSFIPPDGNFRLISYRVSSQNLVAIPVYVKHNISFKENSSCGRFDITIGPKQNMGKTIEGITVTVHMPKVVLNMNLTPTQGSYTFDPVTKVLAWDVGKITPQKLPSLKGLVNLQSGAPKPEENPNLNIQFKIQQLAISGLKVNRLDMYGEKYKPFKGVKYITKAGKFQVRT | no binding | binds
